# Data from US6455593B1, “Method of dynamic retardation of cell cycle kinetics to potentiate cell damage” (priority 1995, dated 2002).
# Tested on: U937 cells
# Experiment: Delayed proliferation assay (MTT 48 hr after washing)
# Details: Homo sapiens, U-937, 70 h, read-out: Maximum effective cytotoxicity (1-N/N0)
# Method: Microcultures treated with an agent or agents for a defined period (exactly as in Example 8) were washed. Seventy-five percent of the well volume was removed without disturbing the sedimented cells, and medium was added to yield a ⅕ dilution. In three additional washes and cell sedimentations, 50% of the medium was replaced such that the original concentration of agents was reduced to <5%. The metabolic mass of cells surviving or proliferating at 48 hr after the washings, including the untreated control cells, was then assayed by the MTT method (total elapsed time of 70 hours).
# As an adjunct to the delayed proliferative assay, we utilized an “immediate plate” to quantitate the cell mass at the beginning of the experiment (N0=original cell mass). It required no more than a single column of microwells filled with 50 μl of growth medium each, and aliquots of cells in 50 μl identical to those transferred to the usual “test plate”. The immediate plate was incubated at 37° C. to complete the MTT assay for the same time as used for the test plate (i.e. 3 hr). […]
# Taking the mean final cell mass at 70 hours as N, positive percentages represent the % effective cytotoxicity (EC%) expressed as 1−N/N0 and converted to a percentage, in relation to concentration. […]
smiles,measurement,value
"CN[C@@H]1C[C@H]2O[C@@](C)([C@@H]1OC)n1c3ccccc3c3c4c(c5c6ccccc6n2c5c31)C(=O)NC4 [STSP, staurosporine]",Emax at 0.175 µM,~85%
